Measurements as given in patent publication US8324177B2, “Triterpene compositions and methods for use thereof” (Research Development Foundation, priority 1998, dated 2012).
At least one compound was matched to its structure with a doubt left.

What was measured:
Format in all cases: cell-based, human
[1] = tested on: AKT phosphorylation in Jurkat cells; assay: Western blot of phosphorylated and total AKT; conditions: known PI3-kinase inhibitors, concentration not given
[2] = tested on: transcription factor NF-κB in Jurkat cells; assay: EMSA of TNF-induced NF-κB activation; conditions: 1 μM
[3] = tested on: PI3-kinase in Jurkat cells; assay: PI3-kinase lipid kinase assay on p85 immunoprecipitates of treated cells; conditions: FIG. 21 legend

Compound: O=c1cc(N2CCOCC2)oc2c(-c3ccccc3)cccc12 [LY 294002]
- Inhibition of AKT phosphorylation (in words) [1]: inhibition of AKT phosphorylation

Compound: COC[C@H]1OC(=O)c2coc3c2[C@@]1(C)C1=C(C3=O)[C@@H]2CCC(=O)[C@@]2(C)C[C@H]1OC(C)=O [wortmannin]
- Inhibition of TNF-induced NF-κB (in words) [2]: almost total inhibition
- Inhibition of PI3-Kinase (in words) [3]: inhibition
- Inhibition of AKT phosphorylation (in words) [1]: inhibition of AKT phosphorylation
